Laboratory results: PubChem BioAssay AID1259254 (NCATS, 2017)
Purpose: 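Finding genes that stop cells copying their DNA twice in one cycle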 (primary screen). System: human HCT116 colorectal cancer cells. Reagents: single siRNA against human genes. Duration: 3 days. Measurement: 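Nuclei stained with Hoechst and imaged; cell-cycle phase assigned by DNA content; G2 share scaled per plate, non-targeting siRNA 0%, GMNN siRNA 100%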. Scale: G2 robust z-score and G2 cells, % of GMNN control: higher = more G2 cells, more excess DNA replication; raw share of cells in G2: higher = larger share of cells with G2 DNA content. Rule for the call: 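An siRNA counts as active if its G2 robust z-score lies at least 5 MADs above the screen median; here such calls match roughly 38% of GMNN control or more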.
The deposit covers about 59,000 reagents; shown is a random part of them. Over the whole deposit, about 1,550 (2.6%) are marked active. 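G2 share is only a proxy for re-replication; each gene was hit by three separate siRNAs, and active genes were retested.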 Raw values are not corrected between plates. Reagents against one gene are numbered here. No sequences are given here. Not stated in the record: the amount of reagent.

Gene,reagent no.,G2 robust z-score,"G2 cells, % of GMNN control",raw share of cells in G2 (%),call
KRTAP3-1,1,0.718,8.02,6.78,inactive
KRTAP3-1,2,-0.708,-2.02,2.86,inactive
KRTAP3-1,3,0.152,4.04,3.63,inactive
ERRFI1,1,0.136,3.93,5.01,inactive
ERRFI1,2,-0.246,1.24,4.79,inactive
ERRFI1,3,2.97,23.8,11.1,inactive
ANKRD37,1,-0.013,2.88,4.97,inactive
ANKRD37,2,-0.673,-1.77,2.48,inactive
ANKRD37,3,0.578,7.03,7.02,inactive
IDI1,1,-0.448,-0.183,4.98,inactive
IDI1,2,1.18,11.3,8.34,inactive
IDI1,3,-0.971,-3.86,4.21,inactive
PLEKHG3,1,2.61,21.3,12.4,inactive
PLEKHG3,2,0.582,7.06,7,inactive
PLEKHG3,3,1.09,10.6,7.02,inactive
KLHDC8A,1,-0.799,-2.65,3.5,inactive
KLHDC8A,2,0.2,4.38,5.95,inactive
KLHDC8A,3,-0.176,1.73,3.69,inactive
TMEM176B,1,1.02,10.1,6.45,inactive
TMEM176B,2,0.663,7.63,6.77,inactive
TMEM176B,3,0.632,7.41,7.35,inactive
ITM2A,1,4.65,35.7,21.5,inactive
ITM2A,2,0.545,6.8,6.78,inactive
ITM2A,3,1.11,10.8,7.33,inactive
OR1J4,1,0.744,8.2,7.5,inactive
OR1J4,2,1.96,16.8,11.2,inactive
OR1J4,3,0.652,7.56,5.94,inactive
SUSD6,1,0.00932,3.03,6.7,inactive
SUSD6,2,0.481,6.35,6.59,inactive
SUSD6,3,-0.00263,2.95,4.48,inactive
SHLD2,1,1.14,11,7.53,inactive
SHLD2,2,-0.758,-2.36,3.28,inactive
SHLD2,3,1.08,10.6,6.69,inactive
COMMD1,1,-0.00742,2.92,4.08,inactive
COMMD1,2,-0.215,1.45,4.31,inactive
COMMD1,3,7.03,52.4,19.1,active
HRH3,1,-0.408,0.0942,5.88,inactive
HRH3,2,3.4,26.9,13.9,inactive
HRH3,3,-1.08,-4.62,1.85,inactive

Copied from above for reference:
Gene,reagent no.,G2 robust z-score,"G2 cells, % of GMNN control",raw share of cells in G2 (%),call
TMEM176B,1,1.02,10.1,6.45,inactive
TMEM176B,2,0.663,7.63,6.77,inactive
TMEM176B,3,0.632,7.41,7.35,inactive
ITM2A,1,4.65,35.7,21.5,inactive
ITM2A,2,0.545,6.8,6.78,inactive
ITM2A,3,1.11,10.8,7.33,inactive
OR1J4,1,0.744,8.2,7.5,inactive
OR1J4,2,1.96,16.8,11.2,inactive
OR1J4,3,0.652,7.56,5.94,inactive
SUSD6,1,0.00932,3.03,6.7,inactive
SUSD6,2,0.481,6.35,6.59,inactive

The list goes on.
Gene,reagent no.,G2 robust z-score,"G2 cells, % of GMNN control",raw share of cells in G2 (%),call
FLT1,1,0.742,8.19,8.31,inactive
FLT1,2,-0.139,1.99,6.08,inactive
FLT1,3,-0.00258,2.95,5.06,inactive
TAAR6,1,0.156,4.06,7.3,inactive
TAAR6,2,-0.949,-3.71,3.22,inactive
TAAR6,3,0.27,4.87,4.76,inactive
CDK11A,1,0.781,8.46,9.56,inactive
CDK11A,2,0.868,9.07,8.5,inactive
CDK11A,3,-0.155,1.87,4.97,inactive
SYT2,1,0.112,3.75,4.38,inactive
SYT2,2,0.0418,3.26,4.3,inactive
SYT2,3,5.17,39.3,17.3,active
POLM,1,-0.326,0.673,6.47,inactive
POLM,2,5.06,38.6,16.6,active
POLM,3,-1.12,-4.89,2.56,inactive
ADAM2,1,-0.475,-0.373,5.43,inactive
ADAM2,2,-0.348,0.521,5.09,inactive
ADAM2,3,0.388,5.7,6.03,inactive
UBALD1,1,-1.1,-4.74,0.432,inactive
UBALD1,2,0.0905,3.6,5.54,inactive
UBALD1,3,-0.897,-3.34,2.33,inactive
MAGEB5,1,3.57,28.1,13.6,inactive
MAGEB5,2,1.54,13.8,9.31,inactive
MAGEB5,3,0.678,7.74,7.31,inactive
CXCL6,1,1.78,15.5,10.9,inactive
CXCL6,2,1.92,16.5,10.2,inactive
CXCL6,3,-0.115,2.16,4.67,inactive
SHC2,1,-0.57,-1.04,3.65,inactive
SHC2,2,4.44,34.2,21.7,inactive
SHC2,3,0.376,5.61,6.05,inactive
